PubChem BioAssay AID652243 – Drosophila RNAi Screening Center | 2013

- Test: 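Knock-downs that decrease or increase androgen receptor reporter signal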 (primary screen)
- Cells: Drosophila S2R+ cells
- Knock-down reagent: long dsRNA against Drosophila genes
- Duration: 72 h (48 h, then 24 h hormone)
- Challenge: synthetic androgen R1881 at 10 nM for 24 h
- Read-out: 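Per-well raw luminescence of the androgen-driven firefly reporter and of the Renilla control, two replicates each, without normalisation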
- Scale: firefly reporter light: higher = more light from androgen-responsive reporter; Renilla control light: higher = more constitutive control signal (cell number, transfection)
- Active means: 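Across duplicate plates, a knock-down whose log firefly/Renilla ratio shifted a set fold down or up from the GFP/LacZ control mean was a hit; the downward cut appears as both 1.5 and 3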
- Meaning of the calls: active = hit: reporter lowered or raised; inactive = no hit
In all, the deposit lists about 24,000 reagents; shown is a random part of those with a known target gene and a result. In the full data, 246 (1%) were called active. 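Plates not normalised; calls are printed but the firefly/Renilla ratio behind them is not deposited; fold cut for lowering reported inconsistently.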 Raw values are not corrected between plates. Unmarked entries are inactive. A plus sign joins genes that one reagent is predicted to hit. No sequences are given here. Not stated in the record: the amount of reagent.

no.	target	amplicon	firefly reporter light, replicate 1	firefly reporter light, replicate 2	Renilla control light, replicate 1	Renilla control light, replicate 2
1	RabGGTb (GeneID 47757)	DRSC00804	6.86e5	7.81e5	2.60e6	2.03e6
2	RabGGTb (GeneID 47757)	DRSC29549	3.73e5	6.42e5	4.42e5	4.42e5
3	CG7655 (GeneID 42128)	DRSC16275	49076	1.41e5	6.82e5	7.50e5
4	CG30375 (GeneID 246575)	DRSC06834	2.11e5	2.04e5	1.49e6	1.31e6
5	CG9044 (GeneID 33825)	DRSC03130	7.92e5	7.77e5	1.44e6	1.46e6
6	Cht8 (GeneID 37390)	DRSC04546	3.02e5	2.35e5	1.69e6	1.25e6
7	AdamTS-A (GeneID 41887)	DRSC14992	29639	21415	4.21e5	4.10e5
8	AdamTS-A (GeneID 41887)	DRSC15966	2.65e5	2.01e5	2.93e6	3.38e6
9	MME1 (GeneID 33987)	DRSC02714	6.46e5	8.88e5	1.74e6	2.45e6
10	Cyt-c1L (GeneID 43457)	DRSC14860	2.78e5	2.80e5	2.16e6	2.11e6
11	Cyt-c1L (GeneID 43457)	DRSC22096	1.37e6	1.31e6	1.62e6	1.59e6
12	Cyt-c1L (GeneID 43457)	DRSC28229	4.27e5	7.06e5	1.07e6	1.31e6
13	CG10793 (GeneID 31308)	DRSC17760	1.94e5	2.41e5	2.68e6	2.57e6
14	CG7148 (GeneID 40432)	DRSC11802	27965	37281	3.23e5	3.70e5
15	CREG (GeneID 42092)	DRSC16595	65258	55073	1.30e6	7.52e5
16	CG10031 (GeneID 33594)	DRSC00286	1.02e5	90784	1.34e6	9.86e5
17	Hsp70Bb + Hsp70Ba + Hsp70Bbb	DRSC28114	6.76e5	8.06e5	1.96e6	1.70e6
18	CG12680 (GeneID 31427)	DRSC17871	2.20e5	2.06e5	2.04e6	2.04e6
19	l(3)L1231 (GeneID 41776)	DRSC16323	26496	1.01e5	3.25e5	3.75e5
20	Parp16 (GeneID 36841)	DRSC06597	75463	95719	1.89e6	1.89e6
21	Parp16 (GeneID 36841)	DRSC27048	3.71e5	2.29e5	8.37e5	7.29e5
22	Cep89 (GeneID 36733)	DRSC07110	35374	61148	8.13e5	8.13e5
23	Cep89 (GeneID 36733)	DRSC29382	4.04e5	5.19e5	8.86e5	8.86e5
24	Ssb-c31a (GeneID 34120)	DRSC03443	2.43e5	3.24e5	2.20e6	2.21e6
25	Ssb-c31a (GeneID 34120)	DRSC28004	5.29e5	4.85e5	1.55e6	1.08e6

Copied from the entries so far, 3 entries:
no.	target	amplicon	firefly reporter light, replicate 1	firefly reporter light, replicate 2	Renilla control light, replicate 1	Renilla control light, replicate 2
4	CG30375 (GeneID 246575)	DRSC06834	2.11e5	2.04e5	1.49e6	1.31e6
5	CG9044 (GeneID 33825)	DRSC03130	7.92e5	7.77e5	1.44e6	1.46e6
6	Cht8 (GeneID 37390)	DRSC04546	3.02e5	2.35e5	1.69e6	1.25e6
